The values below are quoted from earlier work in patent publication US20180237358A1, “RADIOISOTOPE 18F SUBSTITUTED THIAMINE, AND SYNTHESIS METHOD AND USE THEREOF” (ZHONGSHAN HOSPITAL FUDAN UNIVERSITY, priority 2015, published 2018).

This data set has as its system cerebral glucose metabolism. As to conditions: PET tracer, cited from earlier work.

Some results are limits rather than exact numbers.

Regarding `OC[C@H]1O[C@@H](O)[C@H]([18F])[C@@H](O)[C@@H]1O` [2-[^18F]fluoro-2-deoxy-D-glucose], under “Bloudek 2011”, the “sensitivity in diagnosis of mild AD” value was “up to 90%” and the “specificity in diagnosis of mild AD” value was no more than 89%. Further, for the setting “Mosconi 2004”, the “predictive accuracy for development of amnestic mild cognitive impairment into AD” value is listed as 84%.
